Results as given in US6828320B2, “Heterocyclic compounds” (SmithKline Beecham Corporation, priority 1996, dated 2004).

By UniProt entry, the sequences of proteins in these tests, tags left out. Residues count along the entry.
UniProt Q15303, 676-1308 limits assumed: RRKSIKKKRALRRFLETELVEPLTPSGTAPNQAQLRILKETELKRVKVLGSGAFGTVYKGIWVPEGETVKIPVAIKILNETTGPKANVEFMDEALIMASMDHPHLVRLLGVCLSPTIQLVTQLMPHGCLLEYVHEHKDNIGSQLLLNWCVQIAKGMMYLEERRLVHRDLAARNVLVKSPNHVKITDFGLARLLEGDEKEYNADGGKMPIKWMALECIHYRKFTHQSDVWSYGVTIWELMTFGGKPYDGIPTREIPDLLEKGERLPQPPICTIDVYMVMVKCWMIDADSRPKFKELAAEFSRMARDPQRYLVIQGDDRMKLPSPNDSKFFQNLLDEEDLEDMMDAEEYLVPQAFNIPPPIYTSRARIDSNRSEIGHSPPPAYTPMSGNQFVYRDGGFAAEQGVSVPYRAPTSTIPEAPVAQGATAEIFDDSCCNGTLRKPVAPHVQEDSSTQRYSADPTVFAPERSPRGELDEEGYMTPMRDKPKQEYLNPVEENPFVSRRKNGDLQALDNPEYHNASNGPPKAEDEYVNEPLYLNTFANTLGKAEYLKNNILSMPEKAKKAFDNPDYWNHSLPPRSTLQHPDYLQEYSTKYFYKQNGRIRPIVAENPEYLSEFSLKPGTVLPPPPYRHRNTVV

How the values were obtained:
[1] = target: T1, c-erbB-2 (baculovirus expressed, recombinant intracellular domain) (Homo sapiens, UniProt P04626); assay: Substrate phosphorylation assay, c-erbB-2; assay type: biochemical
T1 construct: baculovirus expressed, recombinant constructs of the intracellular domains of c-erbB-2 and c-erbB-4; made in house
Description: (§1) The substrate phosphorylation assays use baculovirus expressed, recombinant constructs of the intracellular domains of c-erbB-2 and c-erbB-4 that are constitutively active and EGFr isolated from solubilised A431 cell membranes. The method measures the ability of the isolated enzymes to catalyse the transfer of the γ-phosphate from ATP onto tyrosine residues in a biotinylated synthetic peptide (Biotin-[…]. […] The reaction is stopped by the addition of EDTA (final concentration 0.15 mM) and a sample is transferred to a streptavidin-coated 96-well plate. The plate is washed and level of phosphotyrosine on the peptide is determined using a Europium-labelled antiphosphotyrosine antibody and quantified with a time-resolved fluorescence technique.

[2] = system: HB4a cell line transfected with ras; assay: Cell proliferation assay, HB4a ras; assay type: cell-based; settings: Homo sapiens, 96 h, 4 days at 37° C., methylene blue staining, general toxicity control
[3] = target: T2, c-erbB-4 (baculovirus expressed, recombinant intracellular domain) (Homo sapiens, UniProt Q15303); assay: Substrate phosphorylation assay, c-erbB-4; assay type: biochemical
T2 construct: baculovirus expressed, recombinant constructs of the intracellular domains of c-erbB-2 and c-erbB-4; made in house
Description: as §1

[4] = target: HB4a cell line transformed by over-expression of c-erbB-2 (Homo sapiens, UniProt P04626); assay: Cell proliferation assay, HB4a erbB-2; assay type: cell-based; settings: 4 days at 37° C., methylene blue staining
Description: The cell proliferation assay uses an immortalised human breast epithelial cell line (HB4a) which has been transformed by over-expression of c-erbB-2. Growth of these cells in low serum is dependent upon the c-erbB-2 tyrosine kinase activity. […] Cells are plated at 3000/ well in 96-well plates in 0.1 ml medium and allowed to attach overnight. test compound is added in 0.1 ml medium, with a final concentration of 0.5% DMSO, and the plates incubated for 4 days at 37° C. The cells are then examined microscopically for evidence of morphological detransformation and cell mass is estimated by staining with methylene blue and measuring the absorbance at 620 nm. […] Activity against a range of naturally occurring EGFr or c-erbB-2 over-expressing human tumour cell lines (BT474-breast, HN5-head and neck, N87-gastric and Calu3-lung) is assessed with selected compounds by the same methodology.

- IC50 [1]: 0.12 µM
- IC50 [3]: 1.4 µM
- GI50 [4]: 0.84 µM
SMILES: CC(CN(C)C)NCc1ccc(-c2ccc3ncnc(Nc4ccc(OCc5ccccc5)cc4)c3c2)o1 (stereo not shown) [Example 12, N2-(5-(4-(4-Benzyloxy-phenylamino)-quinazolin-6-yl)-furan-2-ylmethyl)-N1,N1-dimethyl-propane-1,2-diamine]
- IC50 [2]: 2.5 µM
